Measurements published in patent US5919649.
Construct, isoform or probe ends are uncertain for at least one entry. Where cells or extracts were used, other partners may take part.

Biological target: CREB beta-galactosidase fusion (lambda gt11 phage G1, placental cDNA) (Homo sapiens) (UniProt P16220)
Assay: binding assay
Settings: protein in a lysate after overexpression

| Sequence | binding result (expressed protein on nitrocellulose probed with labelled duplex, label: radioactive) | binding result (bromodeoxyuridine incorporated, UV crosslinking of lysogen extract, competed by unlabelled CRE, label: radioactive body label) |
| --- | --- | --- |
| GATCCGGCTGACGTCATCAAGCTA (double strand) [CRE probe] | binds |  |
| AAAGCCAGAGGTGTCTGACGTCATGCTTTATAACATCCTCTTGATTAGCTA (double strand) [CRE UV-crosslinking probe] |  | binds |
